PubChem BioAssay AID1259405 – NCATS, 2018
Test: 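Mouse-designed siRNAs used to find CHO productivity engineering targets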 (primary screen). Cell system: Chinese hamster CHO-K1 ovary cells with stable secreted eGFP expression. Reagent: single siRNA against mouse genes, 0.8 pmol siRNA per well (2 µl of 400 nM stock). Time to read-out: 3 days. Measured: 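Per-well intracellular GFP measured by laser scanning cytometry, plus viability from ATP luminescence, each relative to plate median of non-targeting control wells, in %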. Reading the numbers: GFP, % of control: higher = more GFP per well, higher productivity; viability (ATP), % of control: higher = more viable cells (more ATP). Rule for the call: 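a knock-down is called active if GFP reaches 120% or more of non-targeting control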.
In all, the deposit lists about 50,000 reagents; shown is a part drawn at random. Of all reagents, about 4,000 (8%) were called active. 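Mouse siRNA library applied to hamster cells; one well for each siRNA.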 Unmarked entries are inactive. Reagents against one gene are numbered here. No sequences are given here.

What did the screen give for Gzmd (granzyme D) #1?
GFP, % of control: 148 (active); viability (ATP), % of control: 76.3

Which result is listed for Gzmd (granzyme D) #2?
GFP, % of control: 82.9; viability (ATP), % of control: 73.4

With Gzmd (granzyme D) #3, what does the deposit list?
GFP, % of control: 79.8; viability (ATP), % of control: 73.4

With Igfbp6 (insulin-like growth factor binding protein 6) #1, what does the deposit list?
GFP, % of control: 52.6; viability (ATP), % of control: 59.7

For Igfbp6 (insulin-like growth factor binding protein 6) #2, how do the results read?
GFP, % of control: 64.1; viability (ATP), % of control: 60.8

With Igfbp6 (insulin-like growth factor binding protein 6) #3, what was measured?
GFP, % of control: 108; viability (ATP), % of control: 83.3

For Rfng (RFNG O-fucosylpeptide 3-beta-N-acetylglucosaminyltransferase) #1, what does the deposit list?
GFP, % of control: 14.1; viability (ATP), % of control: 20.8

What is on record for Rfng (RFNG O-fucosylpeptide 3-beta-N-acetylglucosaminyltransferase) #2?
GFP, % of control: 79.7; viability (ATP), % of control: 78.2

For Rfng (RFNG O-fucosylpeptide 3-beta-N-acetylglucosaminyltransferase) #3, how do the results read?
GFP, % of control: 69.6; viability (ATP), % of control: 67

Which result is listed for Ptp4a2 (protein tyrosine phosphatase 4a2) #1?
GFP, % of control: 87.2; viability (ATP), % of control: 92.8

With Ptp4a2 (protein tyrosine phosphatase 4a2) #2, what was measured?
GFP, % of control: 113; viability (ATP), % of control: 55

With Ptp4a2 (protein tyrosine phosphatase 4a2) #3, what does the deposit list?
GFP, % of control: 71.6; viability (ATP), % of control: 79

Which result is listed for Hes1 (hes family bHLH transcription factor 1) #1?
GFP, % of control: 94.1; viability (ATP), % of control: 76.6

For Hes1 (hes family bHLH transcription factor 1) #2, what was measured?
GFP, % of control: 106; viability (ATP), % of control: 88.3

With Pde6g (phosphodiesterase 6G, cGMP-specific, rod, gamma) #1, how do the results read?
GFP, % of control: 93.1; viability (ATP), % of control: 107

How did the screen score Pde6g (phosphodiesterase 6G, cGMP-specific, rod, gamma) #2?
GFP, % of control: 69.1; viability (ATP), % of control: 52.8

For Pde6g (phosphodiesterase 6G, cGMP-specific, rod, gamma) #3, what was measured?
GFP, % of control: 40.3; viability (ATP), % of control: 40.1

Sorted by “GFP, % of control” (low to high): some entries from above.
Pde6g (phosphodiesterase 6G, cGMP-specific, rod, gamma) #3 → GFP, % of control: 40.3; viability (ATP), % of control: 40.1
Pde6g (phosphodiesterase 6G, cGMP-specific, rod, gamma) #2 → GFP, % of control: 69.1; viability (ATP), % of control: 52.8
